Results published in patent US20120035096A1, “AGENT FOR PREVENTING ARTERIOSCLEROSIS, AGENT FOR SUPPRESSING VASCULAR INTIMAL THICKENING AND AGENT FOR IMPROVING VASCULAR ENDOTHELIAL FUNCTION” (CALPIS CO., LTD., priority 2006, published 2012).
Not every detail of the peptide structures is certain; ends, links or a residue may be inferred.

System: ApoE knockout mice
Test: Confirmatory test for effect of inhibiting vascular intimal thickening, Elastica-van Gieson stain, intima/media area ratio
Assay type: in vivo
Details: added to feed, 31 weeks

Structure (SMILES) | Inhibition of vascular intimal thickening (Table 6, in words)
CC(C)[C@H](N)C(=O)N1CCC[C@H]1C(=O)N1CCC[C@H]1C(=O)O [Val-Pro-Pro] | inhibited vascular intimal thickening concentration-dependently
CC[C@H](C)[C@H](N)C(=O)N1CCC[C@H]1C(=O)N1CCC[C@H]1C(=O)O [Ile-Pro-Pro] | inhibited vascular intimal thickening concentration-dependently
